Source: publication PMC11150451

Molecular target: FLAG-tagged GafZ (C. crescentus)
Test: co-IP; FLAG-tagged GafZ as bait on anti-FLAG magnetic beads (μMACS kit); stationary-phase C. crescentus lysate in 50 mM Tris-HCl pH 8, 150 mM NaCl, 1% Triton X-100, with Benzonase; immunoblots with anti-VSVG, anti-ParB, anti-FLAG

binding: no binding
B1: ParB (protein, UniProt B8GW30 1-304)
chain: MESVVVGEPGMSEGRRGLGRGLSALLGEVDAAPAQAPGEQLGGSREAPIEILQRNPDQPRRTFREEDLEDLSNSIREKGVLQPILVRPSPDTAGEYQIVAGERRWRAAQRAGLKTVPIMVRELDDLAVLEIGIIENVQRADLNVLEEALSYKVLMEKFERTQENIAQTIGKSRSHVANTMRLLALPDEVQSYLVSGELTAGHARAIAAAADPVALAKQIIEGGLSVRETEALARKAPNLSAGKSKGGRPPRVKDTDTQALESDLSSVLGLDVSIDHRGSTGTLTITYATLEQLDDLCNRLTRGI

No constants are given. Whether binding was seen depends on the method and setting. Binding seen in cells or lysates may run through a third protein.
